The values below come from article PMC5492163.

Results are given in words; binding and its absence hold for the method and conditions named. In cells and extracts the contact can be indirect. A yes stands for co-enrichment or nearness to the bait. Other partners may have been found.

B1: RIMS1 (protein, UniProt Q99NE5 1-1463)
chain: MSSAVGPRGPRPPTVPPPMQELPDLSHLTEEERNIIMAVMDRQKEEEEKEEAMLKCVVRDMAKPAACKTPRNAESQPHQPPLNIFRCVCVPRKPSSEEGGPDRNWRLHQQFESYKEQVRKIGEEARRYQGEHKDDAPTCGICHKTKFADGCGHLCSYCRTKFCARCGGRVSLRSNNEDKVVMWVCNLCRKQQEILTKSGAWFFGSGPQQPSQDGTLSDTATGAGSEVPREKKARLQERSRSQTPLSTAAVSSQDTASHGAPLDRNKGAEPSQQALGPEQKQASRSRSEPPRERKKAPGLSEQNGKGGQKSERKRVPKSVVQPGEGTADERERKERRETRRLEKGRSQDYPDRLEKREDGRVAEDEKQRKEEEGVSTPEYTSCEDVELESESVSEKGDLDYWLDPATWHSRETSPISSHPVTWQPSKEGDRLIGRVILNKRTTMPKESGALLGLKVVGGKMTDLGRLGAFITKVKKGSLADVVGHLRAGDEVLEWNGKPLPGATNEEVYNIILESKSEPQVEIIVSRPIGDIPRIPESSHPPLESSSSSFESQKMERPSISVISPTSPGALKDAPQVLPGQLSVKLWYDKVGHQLIVNVLQATDLPPRVDGRPRNPYVKMYFLPDRSDKSKRRTKTVKKLLEPKWNQTFVYSHVHRRDFRERMLEITVWDQPRVQDEESEFLGEILIELETALLDDEPHWYKLQTHDESSLPLPQPSPFMPRRHIHGESSSKKLQRSQRISDSDISDYEVDDGIGVVPPVGYRASARESKATTLTVPEQQRTTHHRSRSVSPHRGDDQGRPRSRLPNVPLQRSLDEIHPTRRSRSPTRHHDASRSLADHRSRHAESQYSSEPDSELLMLPRAKRGRSAECLHMTSELQPSLDRARSASTNCLRPDTSLHSPERERGRWSPSLARRRPASPRIQIQHASPENDRHSRKSERSSIQKQSRKGTASDADRVLPPCLSRRGYAIPRATDQPVIRGKHTTRSRSSEHSSIRTLCSMHHLAPGGSAPPSPLLTRTHRQGSPTQSPPADTSFGSRRGRQLPQVPVRSGSIEQASLVVEERTRQMKMKVHRFKQTTGSGSSQELDHEQYSKYNIHKDQYRSCDNASAKSSDSDVSDVSAISRASSTSRLSSTSFMSEQSERPRGRISSFTPKMQGRRMGTSGRAIIKSTSVSGEIYTLEHNDGSQSDTAVGTVGAGGKKRRSSLSAKVVAIVSRRSRSTSQLSQTESGHKKLKSTIQRSTETGMAAEMRKMVRQPSRESTDGSINSYSSEGNLIFPGVRVGPDSQFSDFLDGLGPAQLVGRQTLATPAMGDIQIGMEDKKGQLEVEVIRARSLTQKPGSKSTPAPYVKVYLLENGACIAKKKTRIARKTLDPLYQQSLVFDESPQGKVLQVIVWGDYGRMDHKCFMGVAQILLEELDLSSMVIGWYKLFPPSSLVDPTLTPLTRRASQSSLESSSGPPCIRS
B2: CTNND2 (δ-catenin) (protein, UniProt O35927 1-1247)
chain: MFARKQSGAAPFGAMPVPDQPPSASEKNSSLSPGLNTSNGDGSETETTSAILASVKEQELQFERLTRELEAERQIVASQLERCKLGSETGSMSSISSAGEQFHWQTQDGQKDIEDELTTGLELVDSCIRSLQESGILDPQDYSTSERPSLLSQSALQLNSKPEGSFQYPASYHSNQTLALGDTAPSQLPARSTQARAAGQSFSQGTTGRAGHLAGSEPAPPPPPPREPFAPSLGSAFHLPDAPPAAAALYYSSSTLPAPPRGGSPLTTTQGGSPTKLQRGGSAPEGAAYAAPRGSSPKQSPSRLAKSYSTSSPINIVVSSAGLSPIRVTSPPTVQSTISSSPIHQLSSTIGTYATLSPTKRLVHASEQYSKHSQELYATATLQRPGSLAAGSRASYSSQHGHLAPELRALQSPEHHIDPIYEDRVYQKPPMRSLSQSQGDPLPPAHTGTFRTSTAPSSPGVDSVPLQRTGSQHGPQNAAAATFQRASYAAGPASNYADPYRQLQYCASVDSPYSKSGPALPPEGTLARSPSIDSIQKDPREFGWRDPELPEVIQMLQHQFPSVQSNAAAYLQHLCFGDNKIKAEIRRQGGIQLLVDLLDHRMTEVHRSACGALRNLVYGKANDDNKIALKNCGGIPALVRLLRKTTDLEIRELVTGVLWNLSSCDALKMPIIQDALAVLTNAVIIPHSGWENSPLQDDRKIQLHSSQVLRNATGCLRNVSSAGEEARRRMRECDGLTDALLYVIQSALGSSEIDSKTVENCVCILRNLSYRLAAETSQGQHMGTDELDGLLCGETNGKDTESSGCWGKKKKKKKSQDQWDGVGPLPDCAEPPKGIQMLWHPSIVKPYLTLLSECSNPDTLEGAAGALQNLAAGSWKGWAEDVAGMAYALRSLPEGAPCLPQWSVYIRAAVRKEKGLPILVELLRIDNDRVVCAVATALRNMALDVRNKELIGKYAMRDLVHRLPGGNNSNNSGSKAMSDDTVTAVCCTLHEVITKNMENAKALRDAGGIEKLVGISKSKGDKHSPKVVKAASQVLNSMWQYRDLRSLYKKDGWSQYHFVASSSTIERDRQRPYSSSRTPSISPVRVSPNNRSASAPASPREMISLKERKTDYESAGNNATYHGTKGEHTSRKDTMTAQNTGVSTLYRNSYGAPAEDIKQNQVSTQPVPQEPSRKDYETYQPFPNSTRNYDESFFEDQVHHRPPASEYTMHLGLKSTGNYVDFYSAARPYSELNYETSHYPASPDSWV
B3: CASK (protein, UniProt O70589 1-926)
chain: MADDDVLFEDVYELCEVIGKGPFSVVRRCINRETGQQFAVKIVDVAKFTSSPGLSTEDLKREASICHMLKHPHIVELLETYSSDGMLYMVFEFMDGADLCFEIVKRADAGFVYSEAVASHYMRQILEALRYCHDNNIIHRDVKPHCVLLASKENSAPVKLGGFGVAIQLGESGLVAGGRVGTPHFMAPEVVKREPYGKPVDVWGCGVILFILLSGCLPFYGTKERLFEGIIKGKYKMNPRQWSHISESAKDLVRRMLMLDPAERITVYEALNHPWLKERDRYAYKIHLPETVEQLRKFNARRKLKGAVLAAVSSHKFNSFYGDPPEELPDFSEDPTSSGLLAAERAVSQVLDSLEEIHALTDCSEKDLDFLHSVFQDQHLHTLLDLYDKINTKSSPQIRNPPSDAVQRAKEVLEEISCYPENNDAKELKRILTQPHFMALLQTHDVVAHEVYSDEALRVTPPPTSPYLNGDSPESANGDMDMENVTRVRLVQFQKNTDEPMGITLKMNELNHCIVARIMHGGMIHRQGTLHVGDEIREINGISVANQTVEQLQKMLREMRGSITFKIVPSYRTQSSSCERDSPSTSRQSPANGHSSTNNSVSDLPSTTQPKGRQIYVRAQFEYDPAKDDLIPCKEAGIRFRVGDIIQIISKDDHNWWQGKLENSKNGTAGLIPSPELQEWRVACIAMEKTKQEQQASCTWFGKKKKQYKDKYLAKHNAVFDQLDLVTYEEVVKLPAFKRKTLVLLGAHGVGRRHIKNTLITKHPDRFAYPIPHTTRPPKKDEENGKNYYFVSHDQMMQDISNNEYLEYGSHEDAMYGTKLETIRKIHEQGLIAILDVEPQALKVLRTAEFAPFVVFIAAPTITPGLNEDESLQRLQKESDVLQRTYAHYFDLTIINNEIDETIRHLEEAVELVCTAPQWVPVSWVY

The assay deals with T1, p140Cap (mouse (endogenous in synaptosomes of the telencephalon)) (UniProt Q9QWI6).
T1 sequence: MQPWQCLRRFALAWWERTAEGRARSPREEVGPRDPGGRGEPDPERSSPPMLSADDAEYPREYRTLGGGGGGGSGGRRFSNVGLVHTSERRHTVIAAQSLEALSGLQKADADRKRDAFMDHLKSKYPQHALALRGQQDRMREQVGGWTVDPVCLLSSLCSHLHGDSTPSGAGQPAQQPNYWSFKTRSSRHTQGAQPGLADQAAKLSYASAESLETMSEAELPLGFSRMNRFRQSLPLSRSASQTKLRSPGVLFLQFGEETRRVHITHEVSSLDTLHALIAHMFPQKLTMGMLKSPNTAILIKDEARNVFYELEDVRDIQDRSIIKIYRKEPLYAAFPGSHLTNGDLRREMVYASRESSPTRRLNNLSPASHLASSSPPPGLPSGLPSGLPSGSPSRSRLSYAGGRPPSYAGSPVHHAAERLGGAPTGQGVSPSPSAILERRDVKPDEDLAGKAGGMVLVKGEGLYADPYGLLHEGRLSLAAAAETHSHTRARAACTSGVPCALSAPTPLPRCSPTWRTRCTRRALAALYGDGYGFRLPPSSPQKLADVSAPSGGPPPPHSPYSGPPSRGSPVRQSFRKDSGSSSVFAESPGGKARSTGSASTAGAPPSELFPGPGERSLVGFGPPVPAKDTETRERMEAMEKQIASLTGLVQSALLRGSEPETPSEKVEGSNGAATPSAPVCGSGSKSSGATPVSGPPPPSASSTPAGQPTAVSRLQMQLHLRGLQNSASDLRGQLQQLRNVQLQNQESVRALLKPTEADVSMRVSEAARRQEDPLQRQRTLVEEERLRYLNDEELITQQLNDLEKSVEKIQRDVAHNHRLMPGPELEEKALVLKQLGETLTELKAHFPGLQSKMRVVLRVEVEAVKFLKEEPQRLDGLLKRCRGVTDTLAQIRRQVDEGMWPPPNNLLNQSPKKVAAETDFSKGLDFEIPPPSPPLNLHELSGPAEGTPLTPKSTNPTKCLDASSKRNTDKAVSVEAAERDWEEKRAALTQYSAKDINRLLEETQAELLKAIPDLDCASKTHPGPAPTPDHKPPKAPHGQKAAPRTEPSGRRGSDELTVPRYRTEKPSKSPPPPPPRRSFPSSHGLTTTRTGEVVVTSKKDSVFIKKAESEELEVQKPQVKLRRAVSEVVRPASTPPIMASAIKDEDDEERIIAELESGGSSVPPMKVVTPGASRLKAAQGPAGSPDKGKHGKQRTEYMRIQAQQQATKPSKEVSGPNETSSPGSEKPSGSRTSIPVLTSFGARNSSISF
Briefly: affinity purification with mass spectrometry; p140Cap immunoprecipitated with Mab 2A8 cross-linked to protein G Dynabeads from 6 mg crude synaptosomal extract of WT mice (p140Cap KO as negative control), 2 h at 4°C, lysis buffer 150 mM NaCl, 50 mM Tris pH 7, 1% NP-40; label-free nanoLC-MS/MS, iBAQ, FDR 1% and at least 4-fold enrichment over KO.
For B1, the binding result was “binds”. Consider B2, for which the binding entry is given as “binds”. The result for B3 reads “binds”.
